This note sets out measurements from paper PMC3496707.

The assay concerns the target 6xHis-tagged recombinant LC2 (light chain of MAP1A) (rat). Briefly: far-Western, overlay or dot blot; MAP1 proteins fractionated by SDS-PAGE, blotted onto nitrocellulose, probed with 10–100 µg/ml recombinant α1-syntrophin in 0.25% Tween 20 in PBS with 2% BSA for 2 h; detected with anti-syn1351; both purified.

These are yes or no findings as the source states them, for the method shown. A result given as binding can be weak or reduced; the word gives no strength. Sequences can lack the tags named with a protein.

B1: NH2-terminally 6xHis-tagged full length mouse α1-syntrophin (protein, UniProt Q61234 1-503)
chain: MASGRRAPRTGLLELRCGAGSGAGGERWQRVLLSLAEDALTVSPADGEPGPEPEPAQLNGAAEPGAAPPQLPEALLLQRRRVTVRKADAGGLGISIKGGRENKMPILISKIFKGLAADQTEALFVGDAILSVNGEDLSSATHDEAVQALKKTGKEVVLEVKYMKEVSPYFKNSAGGTSVGWDSPPASPLQRQPSSPGPQPRNLSEAKHVSLKMAYVSRRCTPTDPEPRYLEICAADGQDAVFLRAKDEASARSWAGAIQAQIGTFIPWVKDELQALLTATGTAGSQDIKQIGWLTEQLPSGGTAPTLALLTEKELLFYCSLPQSREALSRPTRTAPLIATSSAHRLVHSGPSKGSVPYDAELSFALRTGTRHGVDTHLFSVESPQELAAWTRQLVDGCHRAAEGIQEVSTACTWNGRPCSLSVHIDKGFTLWAAEPGAARAMLLRQPFEKLQMSSDDGTSLLFLDFGGAEGEIQLDLHSCPKTMVFIIHSFLSAKVTRLGLLA
modifications: Eu3+-labeled (in the microtiter plate assay only)
B1: the binding result is on record as “binds”.
